This list holds what a sample rich in targets with a hit left over. The data scatter; read single values as rough. The list shows a part of the results, in another mix than the full data.
compound: COC(=O)/C=C/c1ccccc1 [methyl cinnamate]; assay: log2 ratio of iodoacetamide-alkyne labeling of the cysteine site, DMSO over compound (competition); higher = stronger covalent engagement of the cysteine by the compound, active = 1 or more; conditions: 500 µM; treatment time 1 h; system: HEK293T cell lysate
In short: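 HEK293T lysate (2 mg/mL) was incubated with electrophile (500 µM) or vehicle for 1 h at ambient temperature and then with iodoacetamide alkyne for 1 h. Labelled proteins were clicked to sCIP-TMT reagents, pooled, digested, enriched on streptavidin and measured by Orbitrap Eclipse LC-MS/MS with FAIMS, with FragPipe quantification. The per-cysteine log2 competition ratio is mean control-channel reporter intensity over mean compound-channel reporter intensity. Across three replicates with duplicate channels, cysteines quantified in only one replicate were excluded.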

The chains behind the UniProt entries cited, without tags or fusion partners. Where a name states a change or a piece, a line headed by the entry shows the natural chain unless it says otherwise.
UniProt Q08J23, whole entry, looked up: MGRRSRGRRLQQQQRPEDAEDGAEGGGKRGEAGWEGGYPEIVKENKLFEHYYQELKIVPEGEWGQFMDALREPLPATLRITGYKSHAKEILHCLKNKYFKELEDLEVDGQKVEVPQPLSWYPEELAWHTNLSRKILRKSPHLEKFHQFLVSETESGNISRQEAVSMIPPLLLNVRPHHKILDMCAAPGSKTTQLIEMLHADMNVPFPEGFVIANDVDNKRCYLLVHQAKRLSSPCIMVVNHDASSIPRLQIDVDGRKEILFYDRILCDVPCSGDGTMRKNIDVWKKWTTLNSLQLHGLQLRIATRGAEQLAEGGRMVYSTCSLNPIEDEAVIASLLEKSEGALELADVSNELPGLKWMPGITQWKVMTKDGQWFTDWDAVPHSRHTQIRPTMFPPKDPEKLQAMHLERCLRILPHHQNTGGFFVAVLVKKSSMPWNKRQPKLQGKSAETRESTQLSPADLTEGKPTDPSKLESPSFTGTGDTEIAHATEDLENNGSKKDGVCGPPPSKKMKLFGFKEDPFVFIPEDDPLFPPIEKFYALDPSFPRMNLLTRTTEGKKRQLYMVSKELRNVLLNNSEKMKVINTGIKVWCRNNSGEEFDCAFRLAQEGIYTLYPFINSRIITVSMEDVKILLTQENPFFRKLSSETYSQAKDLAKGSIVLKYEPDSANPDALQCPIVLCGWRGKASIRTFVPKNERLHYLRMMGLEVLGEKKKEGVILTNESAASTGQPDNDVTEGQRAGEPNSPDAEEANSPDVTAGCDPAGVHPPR
UniProt Q08211, whole entry, looked up: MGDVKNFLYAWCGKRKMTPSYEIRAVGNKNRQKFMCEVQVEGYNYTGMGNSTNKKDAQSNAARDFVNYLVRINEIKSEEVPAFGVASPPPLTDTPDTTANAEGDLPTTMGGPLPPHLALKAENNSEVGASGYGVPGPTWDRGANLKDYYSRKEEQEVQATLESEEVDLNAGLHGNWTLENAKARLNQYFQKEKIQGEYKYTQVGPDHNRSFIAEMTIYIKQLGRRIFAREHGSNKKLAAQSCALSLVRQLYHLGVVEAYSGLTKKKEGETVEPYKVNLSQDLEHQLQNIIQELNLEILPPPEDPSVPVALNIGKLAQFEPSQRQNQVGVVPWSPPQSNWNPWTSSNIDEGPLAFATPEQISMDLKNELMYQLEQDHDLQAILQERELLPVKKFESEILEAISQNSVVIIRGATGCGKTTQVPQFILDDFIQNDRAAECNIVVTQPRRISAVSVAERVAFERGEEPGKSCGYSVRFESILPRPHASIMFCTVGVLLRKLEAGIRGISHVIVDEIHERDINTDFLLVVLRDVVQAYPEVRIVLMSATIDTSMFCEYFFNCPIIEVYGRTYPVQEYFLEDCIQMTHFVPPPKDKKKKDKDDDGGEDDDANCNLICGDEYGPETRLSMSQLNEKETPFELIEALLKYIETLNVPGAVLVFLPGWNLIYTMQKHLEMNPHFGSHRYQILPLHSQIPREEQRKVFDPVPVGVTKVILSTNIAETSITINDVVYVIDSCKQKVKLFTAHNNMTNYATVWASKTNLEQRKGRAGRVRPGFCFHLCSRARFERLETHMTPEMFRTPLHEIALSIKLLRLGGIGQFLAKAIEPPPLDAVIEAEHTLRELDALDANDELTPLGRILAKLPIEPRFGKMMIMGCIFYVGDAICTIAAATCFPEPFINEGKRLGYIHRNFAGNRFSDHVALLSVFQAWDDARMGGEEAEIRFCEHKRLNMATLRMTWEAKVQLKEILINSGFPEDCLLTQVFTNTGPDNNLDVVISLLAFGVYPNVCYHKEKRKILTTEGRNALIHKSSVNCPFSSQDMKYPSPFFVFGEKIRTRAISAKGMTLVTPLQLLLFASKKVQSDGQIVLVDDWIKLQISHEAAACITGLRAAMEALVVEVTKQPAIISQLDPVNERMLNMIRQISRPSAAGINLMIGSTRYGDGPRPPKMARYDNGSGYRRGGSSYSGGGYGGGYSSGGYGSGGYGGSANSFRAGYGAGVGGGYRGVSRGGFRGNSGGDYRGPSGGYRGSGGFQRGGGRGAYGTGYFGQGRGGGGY
UniProt Q04637, whole entry, looked up: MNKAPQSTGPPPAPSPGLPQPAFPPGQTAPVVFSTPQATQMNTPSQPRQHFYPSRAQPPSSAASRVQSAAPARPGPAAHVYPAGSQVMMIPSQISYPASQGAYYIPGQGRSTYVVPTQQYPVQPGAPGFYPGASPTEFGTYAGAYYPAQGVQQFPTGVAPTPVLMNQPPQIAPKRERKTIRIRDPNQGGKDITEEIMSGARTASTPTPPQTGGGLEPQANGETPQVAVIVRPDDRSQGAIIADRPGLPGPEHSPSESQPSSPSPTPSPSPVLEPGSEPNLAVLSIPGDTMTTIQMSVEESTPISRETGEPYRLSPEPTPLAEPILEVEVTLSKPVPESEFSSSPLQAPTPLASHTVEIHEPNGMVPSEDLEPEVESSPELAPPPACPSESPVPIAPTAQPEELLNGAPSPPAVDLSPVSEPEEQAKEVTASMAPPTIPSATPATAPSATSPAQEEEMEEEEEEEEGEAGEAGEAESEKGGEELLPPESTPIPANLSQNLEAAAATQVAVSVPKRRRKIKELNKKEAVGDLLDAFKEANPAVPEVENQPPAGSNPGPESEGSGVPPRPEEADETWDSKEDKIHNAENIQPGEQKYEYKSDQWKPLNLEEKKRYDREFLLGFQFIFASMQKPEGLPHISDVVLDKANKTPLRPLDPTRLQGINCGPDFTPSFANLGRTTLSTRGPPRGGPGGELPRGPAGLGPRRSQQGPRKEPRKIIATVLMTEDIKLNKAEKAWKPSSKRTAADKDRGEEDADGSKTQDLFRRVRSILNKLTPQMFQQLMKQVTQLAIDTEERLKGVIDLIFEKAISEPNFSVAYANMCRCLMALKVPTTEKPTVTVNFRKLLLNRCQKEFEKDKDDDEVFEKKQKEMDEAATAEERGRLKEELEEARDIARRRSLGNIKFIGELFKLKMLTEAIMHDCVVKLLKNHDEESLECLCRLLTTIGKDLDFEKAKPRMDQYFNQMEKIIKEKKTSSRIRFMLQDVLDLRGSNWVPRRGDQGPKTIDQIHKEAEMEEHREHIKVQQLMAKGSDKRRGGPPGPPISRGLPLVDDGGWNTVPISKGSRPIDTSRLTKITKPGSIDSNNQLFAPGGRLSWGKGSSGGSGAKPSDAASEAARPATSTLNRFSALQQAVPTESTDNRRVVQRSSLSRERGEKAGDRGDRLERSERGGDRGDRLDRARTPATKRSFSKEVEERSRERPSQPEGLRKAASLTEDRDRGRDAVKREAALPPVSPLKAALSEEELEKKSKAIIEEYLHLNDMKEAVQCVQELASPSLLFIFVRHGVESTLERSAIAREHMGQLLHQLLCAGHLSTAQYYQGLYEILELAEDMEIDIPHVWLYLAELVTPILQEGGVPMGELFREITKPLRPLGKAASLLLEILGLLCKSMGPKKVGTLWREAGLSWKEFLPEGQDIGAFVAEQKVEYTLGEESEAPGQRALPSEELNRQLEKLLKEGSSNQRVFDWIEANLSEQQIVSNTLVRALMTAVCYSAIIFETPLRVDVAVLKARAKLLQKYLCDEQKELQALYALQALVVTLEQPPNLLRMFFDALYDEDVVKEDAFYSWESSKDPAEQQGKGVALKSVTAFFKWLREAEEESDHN
UniProt Q12849: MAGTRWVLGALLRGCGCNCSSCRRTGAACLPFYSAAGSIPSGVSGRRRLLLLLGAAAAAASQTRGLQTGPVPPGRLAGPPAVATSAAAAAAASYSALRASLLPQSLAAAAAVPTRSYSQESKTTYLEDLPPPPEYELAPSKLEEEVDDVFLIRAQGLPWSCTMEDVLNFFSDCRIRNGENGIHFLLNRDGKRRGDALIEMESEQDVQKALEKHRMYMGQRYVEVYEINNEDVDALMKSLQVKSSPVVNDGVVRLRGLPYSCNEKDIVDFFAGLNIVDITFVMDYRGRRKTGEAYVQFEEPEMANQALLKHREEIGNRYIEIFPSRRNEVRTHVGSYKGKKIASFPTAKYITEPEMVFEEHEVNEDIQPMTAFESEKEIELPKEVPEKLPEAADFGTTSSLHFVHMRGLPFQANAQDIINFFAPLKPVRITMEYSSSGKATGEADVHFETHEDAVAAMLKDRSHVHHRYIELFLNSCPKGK
UniProt Q08AD1: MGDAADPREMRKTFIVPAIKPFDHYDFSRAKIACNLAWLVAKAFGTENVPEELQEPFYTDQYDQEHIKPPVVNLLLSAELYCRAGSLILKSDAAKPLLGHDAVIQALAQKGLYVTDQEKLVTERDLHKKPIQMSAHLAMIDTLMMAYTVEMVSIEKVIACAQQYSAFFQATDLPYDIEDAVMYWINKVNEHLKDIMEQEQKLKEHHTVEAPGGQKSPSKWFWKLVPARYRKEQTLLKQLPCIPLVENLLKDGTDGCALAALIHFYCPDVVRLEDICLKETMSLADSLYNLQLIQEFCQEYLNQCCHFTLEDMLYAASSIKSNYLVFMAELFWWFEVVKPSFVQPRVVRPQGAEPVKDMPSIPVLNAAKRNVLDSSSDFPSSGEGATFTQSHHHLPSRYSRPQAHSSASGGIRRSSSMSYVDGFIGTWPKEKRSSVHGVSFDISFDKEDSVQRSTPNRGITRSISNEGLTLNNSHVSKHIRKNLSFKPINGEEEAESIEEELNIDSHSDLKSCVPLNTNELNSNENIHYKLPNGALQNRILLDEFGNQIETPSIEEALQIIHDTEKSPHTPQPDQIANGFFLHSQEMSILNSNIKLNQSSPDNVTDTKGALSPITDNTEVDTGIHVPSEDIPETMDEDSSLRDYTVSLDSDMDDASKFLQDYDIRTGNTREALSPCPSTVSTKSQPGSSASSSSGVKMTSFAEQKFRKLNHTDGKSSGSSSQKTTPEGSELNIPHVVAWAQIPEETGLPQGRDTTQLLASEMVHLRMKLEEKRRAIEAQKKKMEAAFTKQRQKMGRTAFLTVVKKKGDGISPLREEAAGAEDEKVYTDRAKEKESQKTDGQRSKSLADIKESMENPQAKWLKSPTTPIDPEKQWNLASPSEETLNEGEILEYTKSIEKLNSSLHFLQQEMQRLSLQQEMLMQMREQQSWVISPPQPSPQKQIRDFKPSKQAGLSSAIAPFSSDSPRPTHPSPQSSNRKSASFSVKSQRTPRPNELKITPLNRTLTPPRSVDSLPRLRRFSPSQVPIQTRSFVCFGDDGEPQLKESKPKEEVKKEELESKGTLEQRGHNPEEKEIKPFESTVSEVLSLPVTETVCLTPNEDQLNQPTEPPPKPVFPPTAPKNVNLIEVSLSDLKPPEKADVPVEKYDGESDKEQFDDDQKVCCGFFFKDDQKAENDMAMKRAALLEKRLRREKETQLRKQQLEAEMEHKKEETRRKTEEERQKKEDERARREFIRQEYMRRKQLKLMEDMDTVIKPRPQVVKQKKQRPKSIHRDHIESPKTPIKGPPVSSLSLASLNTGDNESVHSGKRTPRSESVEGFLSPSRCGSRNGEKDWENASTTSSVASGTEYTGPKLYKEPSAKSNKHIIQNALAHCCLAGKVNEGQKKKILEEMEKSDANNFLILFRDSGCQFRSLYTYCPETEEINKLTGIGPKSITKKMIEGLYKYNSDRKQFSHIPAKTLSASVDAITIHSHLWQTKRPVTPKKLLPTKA
UniProt Q12906, whole entry, looked up: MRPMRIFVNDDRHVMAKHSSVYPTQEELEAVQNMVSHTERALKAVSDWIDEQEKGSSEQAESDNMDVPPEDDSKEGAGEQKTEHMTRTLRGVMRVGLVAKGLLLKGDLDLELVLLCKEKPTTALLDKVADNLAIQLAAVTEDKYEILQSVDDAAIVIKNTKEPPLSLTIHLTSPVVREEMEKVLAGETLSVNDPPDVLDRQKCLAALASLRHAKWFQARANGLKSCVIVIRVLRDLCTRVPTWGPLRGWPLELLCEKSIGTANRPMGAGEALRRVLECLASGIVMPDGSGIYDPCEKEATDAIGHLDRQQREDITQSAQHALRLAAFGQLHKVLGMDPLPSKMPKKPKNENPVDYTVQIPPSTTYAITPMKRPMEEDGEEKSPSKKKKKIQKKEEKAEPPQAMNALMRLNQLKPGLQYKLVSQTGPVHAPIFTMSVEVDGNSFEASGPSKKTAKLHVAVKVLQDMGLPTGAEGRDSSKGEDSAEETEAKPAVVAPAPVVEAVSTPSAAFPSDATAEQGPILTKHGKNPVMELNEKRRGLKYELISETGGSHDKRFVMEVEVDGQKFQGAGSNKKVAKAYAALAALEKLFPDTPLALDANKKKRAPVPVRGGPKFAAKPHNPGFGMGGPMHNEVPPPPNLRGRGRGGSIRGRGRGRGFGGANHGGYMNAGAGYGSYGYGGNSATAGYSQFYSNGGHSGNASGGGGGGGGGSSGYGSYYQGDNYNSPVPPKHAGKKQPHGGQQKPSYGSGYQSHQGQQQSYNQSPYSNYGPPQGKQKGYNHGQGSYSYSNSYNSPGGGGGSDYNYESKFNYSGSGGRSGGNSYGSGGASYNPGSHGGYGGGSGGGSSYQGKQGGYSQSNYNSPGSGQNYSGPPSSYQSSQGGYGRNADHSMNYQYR

log2 ratio of iodoacetamide-alkyne labeling, inactive:
RING1 C69 (UniProt Q06587) 0.124, IFIT5 C476 (UniProt Q13325) 0.142, UniProt Q12824_C350 0.255, TARBP1 C1556 (UniProt Q13395) 0.158, NSUN2 C221 (UniProt Q08J23) 0.0348, PTK7 C911 (UniProt Q13308) -0.0317, TRAF2 C124 (UniProt Q12933) 0.266, DHX9 C1029 (UniProt Q08211) 0.0938, SCRN3 C102 (UniProt Q0VDG4) 0.463, UniProt Q02750_C277 -0.0945, EIF4G1 C821 (UniProt Q04637) -0.0719, NCBP1 C261 (UniProt Q09161) -0.108, GRSF1 C476 (UniProt Q12849) 0.269, GLO1 C139 (UniProt Q04760) 0.0349, PDE3B C767 (UniProt Q13370) -0.198, CAMSAP2 C512 (UniProt Q08AD1) 0.44, HNRNPA0 C49 (UniProt Q13151) -0.113, RPL18 C134 (UniProt Q07020) 0.0996, KLC1 C55 (UniProt Q07866) 0.338, UniProt Q09028_C138 0.0833, GABPB1 C331 (UniProt Q06547) 0.0466, TRIM28 C68 (UniProt Q13263) -0.0258, GRSF1 C173 (UniProt Q12849) -0.0175, ILF3 C295 (UniProt Q12906) -0.00722, GTF3C1 C1091 (UniProt Q12789) 0.155, SF3A3 C437 (UniProt Q12874) -0.0887, AKAP12 C684 (UniProt Q02952) 0.0938, AKAP13 C1414 (UniProt Q12802) 0.361, ROCK1 C1300 (UniProt Q13464) 0.0352, SOS1 C926 (UniProt Q07889) 0.0176, LGALS3BP C489 (UniProt Q08380) 0.29, ILF3 C255 (UniProt Q12906) -0.0371, AKAP12 C1139 (UniProt Q02952) 0.135, IK C263 (UniProt Q13123) 0.276, BPTF C20 (UniProt Q12830) 0.0642, FLII C1265 (UniProt Q13045) 0.108, NFX1 C1067 (UniProt Q12986) 0.125

Source: the supplement of paper PMC11006884
